Measurements: patent US20250340911A1, “METHOD FOR PRODUCING FROM FATTY ALCOHOLS MONOMERS FOR PRODUCING VARIOUS SYNTHETIC RESINS” (priority 2022, published 2025)

Tested on: recombinant strain for α,ω-carboxylation (Candida tropicalis Ct6)
Assay: α,ω-Carboxylation of dialkyl ether compounds by fermentation, 5-L fermentor, GC-MS
Assay type: cell-based
Details: 10 mL substrate in 2-L culture, pH 7.5, 30° C. (33° C. for diundecyl and didodecyl ether)

Compound	Conversion rate(%) 4 hours after substrate addition [%]	Conversion rate(%) 6 hours after substrate addition [%]
CCCCCCCCCCCCOCCCCCCCCCCCC [Didodecyl ether, didodecyl ether]	75.58 ± 3.00	100
CCCCCOCCCCC [Dipentyl ether, dipentyl ether]	44.80 ± 0.31	70.79 ± 0.23
CCCCCCCCOCCCCCCCC [Dioctyl ether, dioctyl ether]	90.17 ± 0.62	100
CCCCCCCCCCCOCCCCCCCCCCC [Diundecyl ether, diundecyl ether]	97.31 ± 1.44	100
CCCCCCCOCCCCCCC [Diheptyl ether, diheptyl ether]	80.66 ± 4.89	100
CCCCCCCCCCOCCCCCCCCCC [Didecyl ether, didecyl ether]	65.37 ± 1.35	76.24 ± 1.42
CCCCCCOCCCCCC [Dihexyl ether, dihexyl ether]	54.54 ± 1.06	73.14 ± 0.55
